Publication PMC2900304
Results are given in words; binding and its absence hold for the method and conditions named. In cells and extracts the contact can be indirect. Binding can be weak; no strength is given.

Molecular target: T1, human R1 (HR1), ribonucleotide reductase large subunit, endogenous (human (endogenous in HeLa)) (UniProt P23921)
T1 sequence: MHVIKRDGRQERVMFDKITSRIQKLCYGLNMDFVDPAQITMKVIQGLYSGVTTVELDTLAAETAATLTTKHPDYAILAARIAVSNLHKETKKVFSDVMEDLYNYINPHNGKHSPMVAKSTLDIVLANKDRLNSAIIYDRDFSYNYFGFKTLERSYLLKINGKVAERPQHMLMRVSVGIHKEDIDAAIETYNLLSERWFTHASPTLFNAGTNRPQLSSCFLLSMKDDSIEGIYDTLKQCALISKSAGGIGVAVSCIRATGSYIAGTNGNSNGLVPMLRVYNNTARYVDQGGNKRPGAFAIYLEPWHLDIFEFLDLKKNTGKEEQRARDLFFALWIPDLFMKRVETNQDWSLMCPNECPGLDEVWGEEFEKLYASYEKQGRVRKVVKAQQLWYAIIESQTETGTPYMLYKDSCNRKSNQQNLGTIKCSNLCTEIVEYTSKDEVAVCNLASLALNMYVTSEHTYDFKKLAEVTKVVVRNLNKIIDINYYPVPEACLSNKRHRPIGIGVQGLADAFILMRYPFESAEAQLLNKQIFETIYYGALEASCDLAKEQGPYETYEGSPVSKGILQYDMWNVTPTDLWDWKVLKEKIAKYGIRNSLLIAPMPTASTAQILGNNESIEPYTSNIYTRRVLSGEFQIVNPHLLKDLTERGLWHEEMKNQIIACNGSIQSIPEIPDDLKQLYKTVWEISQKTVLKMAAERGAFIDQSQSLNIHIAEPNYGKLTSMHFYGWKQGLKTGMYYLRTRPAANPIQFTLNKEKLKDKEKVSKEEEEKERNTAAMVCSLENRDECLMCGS
Experiment: co-IP

**Q.** With “His6-tagged myxoma virus (MYXV) R2 (from UniProt Q9Q8S6)” as the substance, how does the binding read?
**A.** binds
